Assay results taken from PubChem BioAssay AID2284381 (EPA ToxCast).
The inconclusive results got no clear call from the source; some entries with a clear call stand among them for comparison. Where the call is inconclusive, the potency comes from a doubtful curve fit. Activity calls are given as the source filed them. How the source made its calls: active means hit-call score of the fitted dose curve at least 0.9, where 1 is the maximum; inconclusive means response in the unintended direction; inactive means score below 0.9.

These compounds were tested on Japanese medaka Retinoid X Receptor beta (RXRb), gene 100125505 (assay: ATG_jmRXRb_EcoTox2: Attagene TRANS-FACTORIAL EcoTox-2 HepG2 Assay for Japanese medaka Retinoid X Receptor beta (RXRb)).
Description: ATG_EcoTox2 is a cell-based, multiplexed assay created by modifying the existing Attagene TRANS-FACTORIAL system to include a panel of nuclear receptors from some or all the following species: human (Homo sapiens), african clawed frog (Xenopus laevis), rainbow trout (Oncorhynchus mykiss), japanese medaka (Oryzias latipes), and zebrafish (Danio rerio). The ECOTOX2-FACTORIAL format uses HepG2, a human liver cell line, with measurements taken at 24 hours after chemical dosing in a 24-well plate. ATG_jmRXRb_EcoTox2 is one of 29 assay components calculated in the ATG_EcoTox2 assay. It is designed to make measurements of mRNA induction, a form of inducible reporter, as detected with fluorescence intensity signals by Reverse transcription polymerase chain reaction (RT-PCR) and Capillary electrophoresis technology.The assay endpoint ATG_jmRXRb_EcoTox2 was analyzed in the positive analysis fitting direction relative to DMSO as the negative control and baseline of activity. Using a type of inducible reporter, measures of mRNA for gain-of-signal activity can be used to understand the reporter gene at the transcription factor-level as they relate to the gene RXRb. Furthermore, this assay endpoint can be referred to as a primary readout, because this assay has produced multiple assay endpoints where this one serves a reporter gene function. To generalize the intended target to other relatable targets, this assay endpoint is annotated to the nuclear receptor intended target family, where the subfamily is non-steroidal.
Human liver HepG2 cells are transiently transfected with multiple reporter transcription units (MRTUs) in 6-well plates using FuGene 6 reagent (Roche; 3 ml FuGene/1 mg DNA). The MRTU constructs are regulated by a cis-regulating element (promoter). Each RTU expresses a GAL4-UAS that regulates the transcription of a nearby target reporter gene sequence. A major difference between the CIS and TRANS system is that in CIS activities of endogenous TFs are measured, whereas the TRANS assay evaluates changes in activities of exogenous, chimeric NR-Gal4 proteins. […] At the end of 24 hour incubation, total RNA was isolated using TriZol reagent (Invitrogen). The isolated RNA is then reverse-transcribed using oligo(dT) primer and Mo-MLV reverse transcriptase (Invitrogen) with DNAse I (Ambion) treatment for 30 min. The one-tenth of the produced cDNA was amplified by PCR using Taq DNA polymerase (Invitrogen) and two reporter sequence-specific primers. The PCR products were fluorescently labeled by primer extension with 6-arboxyfluorescein (6-FAM) 5'-labeled reporter sequence-specific primer (2 min at 95 C, 20 s at 68 C and 10 min at 72 C) and these products were digested with 5U of HpaI (New England Biolabs) for 2h at 37 C. The fragments were purified using Qiaquick PCR columns (Qiagen), analyzed on an ABI 3130xL genetic analyzer (Applied Biosystems) with peak positions identified by using a set of X-rhodamine (ROX)-labeled MapMarker1000 molecular weight standards (BioVentures). The raw capillary electrophoresis data was processed using Attagraph software (Attagene).
In the case of CN(CCOc1ccc(CC2SC(=O)NC2=O)cc1)c1ccccn1 (stereo not given), the AC50 is reported as active: 12.9 µM. In the case of Cc1c(C)c2c(c(C)c1O)CCC(C)(COc1ccc(CC3SC(=O)NC3=O)cc1)O2 (stereo not given), the AC50 is reported as inconclusive: 10.3 µM. With Cc1nc(-c2ccc(C(F)(F)F)cc2)sc1C(=O)NCc1ccc(OC(C)(C)C(=O)O)cc1 the outcome was “inactive”. With C[C@]12C=CC(=O)C=C1CC[C@@H]1[C@@H]2C(=O)C[C@@]2(C)[C@H]1CC[C@]2(O)C(=O)CO the AC50 was inconclusive: 50 µM. CC(C)OC(=O)C(C)(C)Oc1ccc(C(=O)c2ccc(Cl)cc2)cc1 was tested, and the AC50 was inconclusive: 50 µM.
